Reference: PubChem BioAssay AID624415 (National Center for Advancing Translational Sciences (NCATS), 2012)
The whole screen tested about 390,000 compounds, of which about 60 (0.02%) were called active. This list was built around the results that the source calls inconclusive (neither active nor inactive); the mix of calls is not that of the screen. Rule as the data show it: active = activity change below about -50%; inconclusive = between about -30% and that limit; inactive = weaker than that.

Protein sequences, listed by entry. Tags and fused reporters are not part of them.
UniProt Q9GZU1, whole entry, looked up: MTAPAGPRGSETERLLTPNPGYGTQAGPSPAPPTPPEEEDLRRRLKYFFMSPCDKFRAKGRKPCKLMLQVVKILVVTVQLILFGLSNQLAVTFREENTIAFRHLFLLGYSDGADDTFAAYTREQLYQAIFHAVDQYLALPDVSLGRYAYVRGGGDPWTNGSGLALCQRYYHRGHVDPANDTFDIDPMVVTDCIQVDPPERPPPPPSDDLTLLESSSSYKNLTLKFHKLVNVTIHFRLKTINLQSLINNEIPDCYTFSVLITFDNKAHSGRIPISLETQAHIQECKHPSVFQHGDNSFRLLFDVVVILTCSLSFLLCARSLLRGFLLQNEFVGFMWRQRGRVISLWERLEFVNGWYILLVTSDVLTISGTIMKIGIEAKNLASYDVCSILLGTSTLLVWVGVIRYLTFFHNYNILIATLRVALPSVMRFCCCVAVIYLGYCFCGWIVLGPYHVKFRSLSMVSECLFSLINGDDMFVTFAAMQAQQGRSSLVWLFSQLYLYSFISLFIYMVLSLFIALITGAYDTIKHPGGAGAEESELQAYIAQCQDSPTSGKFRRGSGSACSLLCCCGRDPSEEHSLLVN

Target: Mucolipin-1 (Homo sapiens) (UniProt Q9GZU1)
Assay: qHTS for Inhibitors of the Human Mucolipin Transient Receptor Potential 1 (TRPML1);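 also: stimulus is agonist 54-4 at its EC80 concentration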
Settings: TRPML1-inducible cells, Ca2+ dye fluorescence, FDSS, active compounds read low
Source text: Mutations of human Mucolipin transient receptor potential 1 (TRPML1) cause type IV mucolipidosis (ML4), a devastating neurodegenerative disease in young children. […] Currently, there is no treatment for ML4. […] Under physiological conditions, TRPMLs regulate membrane trafficking by transducing information about PI(3,5)P2 levels into changes in juxtaorganellar Ca2+, thereby triggering membrane fusion/fission events in the late endocytic pathways (endolysosomal trafficking). In addition, TRPML1 mediates release of Fe2+ from late endosomes and lysosomes, which is essential for cellular iron metabolism. Thus, impaired ion (Ca2+ and Fe2+) homeostasis underlies lysosomal dysfunction and ML4 phenotypes. In ML4 cells, the problem is twofold. First, defective Ca2+-dependent membrane trafficking due to TRPML1-deficiency causes accumulation of lipids and other bio-materials in the lysosome. The second strike comes from the lysosomal iron overload (due to impairment of TRPML1's Fe2+ conductivity), which converts the accumulated materials into the nondegradable (resistant to lysosomal degradation) lipofuscin (also called aging pigment) in the lysosome. Lipofuscin accumulation dramatically compromises the functions of lysosomes.
Niemann-Pick type C (NPC) disease is another lysosome storage disease (LSD) with severe neurodegeneration during the childhood. Currently, there is no cure for NPC. […] Thus, TRPML1 is likely to be an essential regulator of lysosome ion homeostasis. We specifically hypothesize that stimulating TRPML1's Fe2+/Ca2+ channel activity in the lysosome using synthetic agonists can alleviate neurodegeneration associated with ML4 or NPC.
To this end, a high throughput screen was developed in a miniaturized format to screen against the Molecular Libraries Small Molecule Repository (MLSMR) to find small molecules that act either as inhibitors or agonist against the TRPML1 channel.
NIH Chemical Genomics Center [NCGC]
NIH Molecular Libraries Probe Centers Network [MLPCN]
Assay Submitter (PI): Haoxing Xu, University of Michigan Ann Arbor
TRPML1-DL cells are dissociated from flasks, counted and, brought up to a density of 500,000 cells per mL of media containing a 1X Tet inducer. Using a Multidrop Combi, 3 uL of this cell solution is dispensed to each well of a 1536 TC treated, black, clear bottom hi base plate for a final cell density of 1,500 cells per well. The assay plates are incubated overnight (approximately 16 hours) at 37 degrees C and 5% CO2. Using a Multidrop Combi, 2 uL of ABD Ca8 no wash dye plus quencher is added to each well. The assay plates incubate at room temperature in the dark for 45-90 minutes. The assay plate is read on the FDSS using the following protocol: 10 second baseline read, 23 nL of compounds and controls are added using 1536 pintool, agonist read for 110 seconds, 1 uL EC80 addition (4 uM final 54-4 diluted in media), antagonist read for 110 seconds.
% is scaled to controls: 0 for no effect and ±100 for the full control effect.

SMILES	activity change, negative = inhibition
O=C1C(=O)c2cccc3cccc1c23	inactive: -18.2%
COC(=O)C(C)NC(=S)N1CC2C[C@@H](C1)Cn1c2cccc1=O (stereo not given in full)	inconclusive: -40.6% [inhibition of EC80 agonist-evoked calcium signal]
Cc1ccc(NC(=O)Cn2cc(C(=O)c3ccccc3)c3ccccc32)cc1	inconclusive: -45.1%
COc1ccc(CCNCc2ccccc2)cc1	inactive: 28%
OC1(c2ccccc2F)CC2CCC(C1)N2CCN1CCOCC1 (stereo not given)	inconclusive: -42.9% [inhibition of EC80 agonist-evoked calcium signal]
CC12CC(=O)C3C(CCC4CC(=O)C=CC43C)C1CCC2=O (stereo not given)	inconclusive: -33.7%
CN1CCN(Cc2ccc(Br)s2)CC1	inactive: -9.25%
CC[N+](C)(CC)CCCCOc1ccc2c(c1)C(=O)c1cc(OCCCC[N+](C)(CC)CC)ccc1-2	inconclusive: -39.8% [inhibition of EC80 agonist-evoked calcium signal]
CCc1ccccc1NC(=O)CNC1CCCCC1	inconclusive: -34.7% [inhibition of EC80 agonist-evoked calcium signal]
O=C1NC(=O)C(=Cc2coc3ccc(O)cc3c2=O)C(=O)N1	inactive: 33.1%
Clc1ccc2c(c1)C(c1ccccc1Cl)=NCc1nnc(N3CCN(CCOc4ccccc4)CC3)n1-2	inactive: -9.49%
CCOc1ccccc1N1C(=O)NC(=O)C(CCc2ccncc2)(CCc2ccncc2)C1=O	inconclusive: -31.4%
CCOc1ccc(N2C(=O)/C(=C\c3cccs3)C(=O)NC2=S)cc1	inactive: 10.1%
C=CCn1c(O)c(C(C)=NCc2cccnc2)c(=O)[nH]c1=O	inconclusive: -32.1%
O=C1NC(=O)C(CCc2ccncc2)(Cc2ccc3c(c2)OCO3)C(=O)N1CCc1ccccc1 (stereo not given)	inconclusive: -32.7%
CCOP(=O)(OCC)C(NC(=O)c1ccc(Cl)cc1)=C(Cl)Cl	inactive: 6.25%
COC(=O)C1=C(c2ccc(S(C)(=O)=O)cc2)C[C@@H]2CC[C@H]1N2C(=O)N1CCC(C)CC1	inactive: 8.21%
COC(=O)C1=C(c2ccccc2OCc2ccccc2)C[C@@H]2CC[C@H]1N2C(=O)NCc1ccccc1	inactive: 5.05%
COc1cc2c(cc1OC)C(C(=O)N1CCC3(CC1)OCCO3)C(c1ccccc1F)N(C)C2=O (stereo not given)	inconclusive: -35.5%
COc1ccccc1OP(=O)(Nc1cccnc1)Oc1ccccc1OC	inconclusive: -30.1% [inhibition of EC80 agonist-evoked calcium signal]

An excerpt from above in order of heavy-atom count, smallest number first:
SMILES	activity change, negative = inhibition
CCOc1ccc(N2C(=O)/C(=C\c3cccs3)C(=O)NC2=S)cc1	inactive: 10.1%
COc1ccccc1OP(=O)(Nc1cccnc1)Oc1ccccc1OC	inconclusive: -30.1% [inhibition of EC80 agonist-evoked calcium signal]
COc1cc2c(cc1OC)C(C(=O)N1CCC3(CC1)OCCO3)C(c1ccccc1F)N(C)C2=O (stereo not given)	inconclusive: -35.5%
